From PubChem BioAssay record AID2060322 (NCATS, 2025).

By UniProt entry, the sequences of proteins in these tests, tags left out.
UniProt P04637, whole entry, target on record: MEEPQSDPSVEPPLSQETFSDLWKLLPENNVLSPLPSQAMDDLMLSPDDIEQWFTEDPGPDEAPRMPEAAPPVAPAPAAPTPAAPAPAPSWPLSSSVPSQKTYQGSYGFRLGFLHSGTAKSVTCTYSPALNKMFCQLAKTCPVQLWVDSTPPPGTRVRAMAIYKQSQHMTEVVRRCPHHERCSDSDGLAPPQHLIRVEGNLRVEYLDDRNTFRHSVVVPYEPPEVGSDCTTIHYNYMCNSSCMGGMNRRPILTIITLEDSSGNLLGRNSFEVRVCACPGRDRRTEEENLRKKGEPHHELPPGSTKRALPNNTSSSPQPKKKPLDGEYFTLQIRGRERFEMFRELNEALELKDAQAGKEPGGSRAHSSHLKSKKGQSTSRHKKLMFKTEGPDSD

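NCI-H358 cells carrying N-terminally eGFP-tagged delta133p53alpha, with eGFP fluorescence read at 24 hours and fitted across a concentration series. The dilution series runs from about 7.7e-06 to 290 µM in 23 concentration columns. Potency, read at half-maximal effect from the fitted activation curve; lower values mean a more potent compound. Calls follow the dose-curve shape: a well-fitted activation curve with a large enough effect is active, and small, poorly fitted or top-dose-only effects are inconclusive.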

Values are in µM. Every entry below has the call inconclusive. Only part of the assay is shown, chiefly results filed as inconclusive. Potencies fitted to partial, single-point or poorly fitting curves are rough. Some entries filed as inconclusive have a full curve. An entry listed twice with the same setting is a separate test.

SMILES | potency (µM) | curve as filed
Cc1nc(N)ncc1-c1nc(N2CCOCC2)c2sc(C(C)(C)O)cc2n1 | 26.85 | activator, single point
COc1cc2c(cc1O)CC[C@@H]1[C@@H]2CC[C@]2(C)[C@@H](O)CC[C@@H]12 | 0.4775 | activator, full curve, poor fit
COCCOc1cnc2ccn([C@H](C)c3nnc4c(F)cc(-c5cnn(C)c5)cn34)c(=O)c2c1 | 3.793 | activator, partial curve, poor fit
CC1CC(O)CC(C)(C)C1(O)CCO (stereo not shown) | 4.467 | activator, single point
C=C1[C@@H](OC(C)=O)CC[C@@]2(C)[C@@H](OC(C)=O)[C@H](OC(C)=O)C3=C(C)C[C@H](OC(=O)C(C)CC)[C@@H]([C@@H](OC(C)=O)[C@H]12)C3(C)C (stereo partly shown) | 3.158 | activator, single point
CN[C@@H](C)C(=O)N[C@H]1CN(C(=O)CC(C)C)CC[C@H]2CC[C@@H](C(=O)NC(c3ccccc3)c3ccccc3)N2C1=O | 37.93 | activator, single point
Cc1ccn(-c2ccc(-c3ncco3)cc2)c(=O)c1-c1ccc2nc(N)ncc2c1 | 10.69 | activator, partial curve
CCn1c(=O)c(-c2ccc(Cl)cc2Cl)cc2cnc(Nc3ccc(N4CCNCC4)c(F)c3)nc21 | 37.93 | activator, single point
NC1[C@H]2CN(c3nc4c(cc3F)c(=O)c(C(=O)O)cn4-c3ccc(F)cc3F)C[C@@H]12 (stereo partly shown) | 19.51 | activator, single point
N#Cc1cc(C2=Nc3ccc(Br)cc3NC(=O)C2)ccn1 | 37.93 | activator, single point
Nc1nc(OCC2CCCCC2)c2[nH]cnc2n1 | 26.85 | activator, single point
CC(C)N(CCC(=O)c1ccc2ccccc2c1)Cc1ccccc1 | 8.492 | activator, single point
CO[C@H]1C(=O)[C@]2(C)[C@@H](OC)C[C@H]3OC[C@@]3(OC(C)=O)[C@H]2[C@H](OC(=O)c2ccccc2)[C@]2(O)C[C@H](OC(=O)[C@H](O)[C@@H](NC(=O)OC(C)(C)C)c3ccccc3)C(C)=C1C2(C)C | 0.0217 | activator, full curve, poor fit
Clc1ccccc1C(c1ccccc1)(c1ccccc1)n1ccnc1 | 48.52 | activator, single point
CNC(=O)c1ccc(N2C(=S)N(c3ccc(C#N)c(C(F)(F)F)c3)C(=O)C2(C)C)cc1F | 43.24 | activator, single point
Nc1[nH]nc2nnc(-c3c(-c4ccccc4)nn4ccccc34)cc12 | 38.54 | activator, single point
CN(C)CCCN1c2ccccc2Sc2ccc(Cl)cc21 | 0.0067 | activator, single point
COc1cc(/C=C/C(=O)OC[C@H]2O[C@H](O[C@]3(CO)O[C@H](CO)[C@@H](O)[C@@H]3O)[C@H](O)[C@@H](O)[C@@H]2O)cc(OC)c1O | 0.0104 | activator, full curve
Nc1[nH]nc2nnc(-c3c(-c4ccccc4)nn4ccccc34)cc12 | 19.01 | activator, partial curve, poor fit
N[C@H](C(=O)O)[C@H](O)C(=O)O | 0.2685 | activator, full curve, poor fit
CC1(C)CC[C@]2(C(=O)O)CC[C@]3(C)C(=CCC4[C@@]5(C)C[C@@H](O)[C@H](O)[C@@](C)(CO)C5CC[C@]43C)[C@@H]2[C@@H]1O (stereo partly shown) | 9.285 | activator, single point
COc1ccc(CCCN2CCC(COC(c3ccccc3)c3ccccc3)CC2)cc1 | 30.13 | activator, single point
C=CC(=O)Nc1cccc(Nc2nc(Nc3ccc(N4CCN(C(C)=O)CC4)cc3OC)ncc2C(F)(F)F)c1 | 3.381 | activator, full curve
CS(=O)(=O)N(Cc1ccco1)CC(O)Cn1c2ccccc2c2ccccc21 (stereo not shown) | 37.93 | activator, single point
CN1CCN(C2CCC(n3cc(-c4ccc(Oc5ccccc5)cc4)c4c(N)ncnc43)CC2)CC1 (stereo not shown) | 33.81 | activator, single point
CC(C)c1cccc(C(C)C)c1N1C(=O)c2ccc(O)cc2C1=O | 8.492 | activator, single point
CCC(=O)C(CC(C)N(C)C)(c1ccccc1)c1ccccc1 (stereo not shown) | 79.9 | activator, single point
Cc1c(NC(=O)c2cc3c(s2)CCCC3)cccc1-c1cn(C)c(=O)c(Nc2ccc(C3C(=O)N(C)CCN3C)cc2)n1 (stereo not shown) | 26.85 | activator, single point
CCn1c(C(=O)N(C2CC2)C2CC2)cc2c3c(ncn3C)c(Nc3cc(C)n(C)n3)nc21 | 15.34 | activator, single point
CN(C)Cc1ccc(-c2nc3cccc4c3n2CCNC4=O)cc1 | 37.93 | activator, single point
CC(C)(C)Cn1c(N)nc2ccc(-c3[nH]c(C(C)(C)C)nc3-c3ccc(F)cc3)nc21 | 37.93 | activator, single point
Nc1nc(N)c(N=O)c(OCC2CCCCC2)n1 | 0.9528 | activator, partial curve
C=CC(=O)N1CCC[C@@H](n2nc(-c3ccc(Oc4ccccc4)cc3)c3c(N)ncnc32)C1 | 0.0077 | activator, full curve, poor fit
S=P(N1CC1)(N1CC1)N1CC1 | 23.72 | activator, partial curve
COc1ccc(CCN(C)CCCC(C#N)(c2cc(OC)c(OC)c(OC)c2)C(C)C)cc1OC (stereo not shown) | 27.56 | activator, single point
O=C(O)c1cn(-c2ccc(F)cc2)c2cc(N3CCNCC3)c(F)cc2c1=O | 1.694 | activator, single point
O=C(c1ccc(/C=C/c2n[nH]c3ccccc23)cc1)N1CCNCC1 | 23.93 | activator, single point
COc1ccc2c(c1OC)C(=O)O[C@@H]2[C@H]1c2c(cc3c(c2OC)OCO3)CCN1C | 30.13 | activator, single point

5 of the entries, repeated:

- Clc1ccccc1C(c1ccccc1)(c1ccccc1)n1ccnc1 | potency 48.52 µM (activator, single point)
- N[C@H](C(=O)O)[C@H](O)C(=O)O | potency 0.2685 µM (activator, full curve, poor fit)
- N#Cc1cc(C2=Nc3ccc(Br)cc3NC(=O)C2)ccn1 | potency 37.93 µM (activator, single point)
- CC(C)c1cccc(C(C)C)c1N1C(=O)c2ccc(O)cc2C1=O | potency 8.492 µM (activator, single point)
- CO[C@H]1C(=O)[C@]2(C)[C@@H](OC)C[C@H]3OC[C@@]3(OC(C)=O)[C@H]2[C@H](OC(=O)c2ccccc2)[C@]2(O)C[C@H](OC(=O)[C@H](O)[C@@H](NC(=O)OC(C)(C)C)c3ccccc3)C(C)=C1C2(C)C | potency 0.0217 µM (activator, full curve, poor fit)